Experimental data: PubChem BioAssay AID1632 (University of Pittsburgh Molecular Library Screening Center, 2009)
Some of the results follow.

Test system: hexokinase 1 [Trypanosoma brucei]
Assay: T. brucei hexokinase 1 inhibitor potency, dose response, biochemical, IC50 (AID 1632)
Conditions: recombinant TbHK1 enzyme assay, absorbance read-out, at 100 µM, stronger effect = higher value

O=P(Nc1nccs1)(c1ccccc1)c1nc2ccccc2s1 (stereo unspecified)
inhibition: 86.7%
